Source: patent US10011570B2, “Nucleic acid binding dyes with improved safety” (Biotium, Inc., priority 2013, dated 2018)
“Also recorded” adds a separate entry of the source.

Columns and labels:
[1] = Glove permeability test; conditions: 3.25 uM dye (5× gel staining concentration), 48 hours
[2] = tested on: linearized plasmid DNA; assay: Dye carryover after gel extraction of nucleic acids from agarose gels; conditions: silica spin column gel extraction kits, exposure up to 12 seconds

SMILES | dye detected inside / leaked through the glove finger [1] | dye carryover after gel extraction [2]
C[n+]1c(C=C2C=CN(CCCSCC(N)C(=O)[O-])c3ccccc32)sc2ccccc21.I (stereo not shown) [Dye No. 4] | no significant amount; also recorded: minimal amount | no visible dye carryover
CC[N+](C)(CC)CCC[n+]1c(-c2ccc(S(=O)(=O)[O-])cc2)c2cc(N)ccc2c2ccc(N)cc21.[I-] [Dye No. 10] | – | no visible dye carryover
C[N+](C)(C)CCC[n+]1c(-c2ccc(S(=O)(=O)[O-])cc2)c2cc(N)ccc2c2ccc(N)cc21.[I-] [Dye No. 11] | no significant amount; also recorded: minimal amount | –
